The source of these data is publication PMC7994586, “The box C/D snoRNP assembly factor Bcd1 interacts with the histone chaperone Rtt106 and controls its transcription dependent activity” (Nature Communications, 2021).

No constants are given. Whether binding was seen depends on the method and setting. Where a sequence is shown, tags or fusion partners need not be part of it.

This test addresses T1, full-length Bcd1p (Bcd1pFL) fused to the Gal4 binding domain (BD) (S. cerevisiae) (UniProt P38772).
T1 sequence: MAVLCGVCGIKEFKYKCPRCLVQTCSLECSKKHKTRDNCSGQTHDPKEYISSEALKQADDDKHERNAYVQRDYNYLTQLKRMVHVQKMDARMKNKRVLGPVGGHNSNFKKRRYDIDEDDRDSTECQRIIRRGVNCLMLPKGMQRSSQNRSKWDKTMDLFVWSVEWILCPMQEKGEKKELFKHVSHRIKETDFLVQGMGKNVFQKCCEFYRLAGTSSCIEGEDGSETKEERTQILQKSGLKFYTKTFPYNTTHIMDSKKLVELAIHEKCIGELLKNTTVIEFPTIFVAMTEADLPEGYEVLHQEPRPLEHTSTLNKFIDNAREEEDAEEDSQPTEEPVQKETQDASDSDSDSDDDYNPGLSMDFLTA
Description: two-hybrid; Bcd1pFL on Gal4 BD (pGBKT7, bait), partners on Gal4 AD (pACTII, prey); diploids on Leu-Trp-His- medium with increasing 3-AT, growth after three days at 30 °C.

“Pob3p-M fused to the Gal4 activation domain (S. cerevisiae) (domain or fragment)”: the binding entry is recorded as “no binding”.

For the substance “Spt16p-M fused to the Gal4 activation domain (S. cerevisiae) (domain or fragment)”, the binding result was “no binding”.
